Reference: PubChem BioAssay AID2685 (National Center for Advancing Translational Sciences (NCATS), 2010)
The other results are listed elsewhere or left out. Shown are side measurements of this screen, not its main read-out; they come without a call. The list favours compounds with an active or inconclusive main result. The note in brackets gives the kind of curve behind each potency; many fits are weak.

Assay: qHTS Assay for Lipid Storage Modulators in Drosophila S3 Cells;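 as to cell number change: cells counted by Cell Tracker Red CMTPX staining in the red channel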
Settings: BODIPY lipid droplet fluorescence, 18-24 h; for cell number change: measured here: cell count max response, cells fed with added oleic acid
Procedure, shortened: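 Laser-scanning cytometry quantifies lipid droplet accumulation (500–530 nm total intensity; droplet/cell object ratio) in oleic acid-fed (400 uM added) Drosophila S3 cells treated with a concentration series. 20 uM Triacsin C defined 100% inhibition.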

[1] = measured here: cell number channel AC50, cells fed with added oleic acid
[2] = measured here: lipid fluorescence (Fed channel) AC50, cells fed with added oleic acid

Row | Structure (SMILES) | cell number change [%] | AC50 [1] | AC50 [2]
1 | CC1(C)Cc2ccccc2-c2nnc(SCC(=O)Nc3ccc4c(c3)OCO4)n21 | -199 | 4.61 µM [falling, full curve] | 0.411 µM [falling, partial curve, poor fit]
2 | O=C(Nc1ccncc1)c1ccc(Cl)c(S(=O)(=O)N2CCCC2)c1 | 143 | 18.4 µM [rising, partial curve] | –
3 | O=C(N[C@@H](Cc1ccccc1)C(=O)NC1CC1)c1ccc(Cl)cc1 | 28.2 | – | 6.51 µM [falling, partial curve, poor fit]
4 | O=C(N/N=C/c1ccccc1F)c1cc2c(ccc3ccccc32)o1 | -3.68 | – | 0.82 µM [rising, full curve]
5 | CC(=O)Nc1ccc(S(=O)(=O)NCC(=O)OCC(=O)N2CCCCCC2)cc1 | 0.376 | – | 1.46 µM [rising, partial curve]
6 | NC(=O)NC(=O)COC(=O)c1ccccc1Oc1ccccc1 | -0.408 | – | –
7 | COc1cccc(/C=C2\SC(=S)N(CC(=O)N(C)C3CCS(=O)(=O)C3)C2=O)c1 (configuration not stated) | 0.382 | – | 29.1 µM [falling, single point]
8 | COc1ccc([C@H]2CC(=O)C=C(c3cccc(Br)c3)C2)cc1 | 5.37 | – | 0.731 µM [falling, single point]
9 | CCOc1cc(C2C(C(=O)O)c3cc(OCC)c(OCC)cc3C(=O)N2C)ccc1O (configuration not stated) | -146 | 29.1 µM [falling, single point] | 29.1 µM [falling, single point]
10 | CCc1nc(N2CCN(CC(=O)NCC3CCCO3)CC2)c(C#N)c2c1COC(C)(C)C2 (configuration not stated) | – | 0.103 µM [rising, full curve] | 29.1 µM [rising, single point]
11 | NC(=O)COC(=O)c1cccnc1Nc1ccccc1F | 18.9 | – | –
12 | Cc1c(C(=O)Nc2c3c(nn2C(C)(C)C)CS(=O)(=O)C3)cccc1[N+](=O)[O-] | -33.6 | 8.2 µM [falling, partial curve, poor fit] | –
13 | CCOc1cc(CO)cc(Br)c1OCC(=O)Nc1ccccc1C | 12.3 | – | –
14 | COC(=O)c1cc(NS(=O)(=O)c2ccc(OC)c(OC)c2)ccc1Cl | -22.4 | – | –
15 | Cc1nn(Cc2cccc(C(=O)N3N=C(C(F)F)CC3(O)C(F)F)c2)c(C)c1[N+](=O)[O-] (configuration not stated) | – | 2.06 µM [rising, partial curve] | 6.51 µM [rising, full curve, poor fit]
16 | COc1ncccc1C(=O)N1CCCC(N2CCN(c3cccc(Cl)c3)CC2)C1 (configuration not stated) | 18.5 | – | 0.651 µM [rising, full curve]
17 | O=C(CN1CCN(S(=O)(=O)c2ccc(Cl)cc2)CC1)Nc1ccc2c(c1)OCCO2 | 11.5 | – | –
18 | Cc1ccc(C2CC(C(F)(F)F)n3ncc(C(N)=O)c3N2)cc1 (configuration not stated) | -16.8 | – | 16.4 µM [rising, partial curve]
19 | CCn1c2ccccc2c2cc(NC(=O)COC(=O)c3cc(S(=O)(=O)N4CCCCC4)ccc3Cl)ccc21 | 4.47 | – | –

Row | Structure (SMILES) | cell number change [%] | AC50 [1] | AC50 [2]
20 | CNc1nc(SCc2ccc(C)cc2)nc2c1CCCC2 | -35.1 | 8.2 µM [falling, partial curve, poor fit] | –
21 | Cn1c(=O)c2c(ncn2CC(=O)OCC(=O)Nc2ccc(F)cc2F)n(C)c1=O | -10 | – | 2.31 µM [rising, single point]
22 | CCCCCCCN=CC1=C(O)CC(c2ccccc2)CC1=O (configuration not stated) | 2.59 | – | 14.6 µM [rising, single point]
23 | Cc1ccc(CNC(=O)c2ccc(N3CCC4(CC3)CC(c3cccc(Br)c3)=NO4)c(N)c2)cc1 | -4.55 | – | 0.146 µM [falling, partial curve]
24 | O=C(Nc1cccc(-c2cnc3ccccc3n2)c1)c1cccc(NC(=O)c2ccco2)c1 | -152 | 25.9 µM [falling, single point] | –
25 | CC1(C)CCC(=O)N2CC[C@H]3C[C@H](OC(=O)Nc4ccccc4)C[C@@H]1[C@H]32 | 1.94 | – | 0.731 µM [rising, full curve]
26 | CCCSc1nc2c(c(=O)[nH]c(=O)n2C)n1CCc1ccccc1 | -23.6 | – | 0.651 µM [falling, full curve, poor fit]
27 | Cc1nc2ccccc2nc1OCC(=O)NCC(F)(F)F | -6.12 | – | 13 µM [falling, partial curve, poor fit]
28 | O=C(NCCc1c[nH]c2ccccc12)c1cc2sccc2n1Cc1ccccc1 | -65.9 | 10.3 µM [falling, partial curve] | 5.8 µM [falling, partial curve]
29 | CCCN(CCC)C(=O)CC(c1ccccc1)c1ccc(C)cc1O (configuration not stated) | -13.1 | – | –
30 | CCC(C)[C@H](NC(=O)[C@H](Cc1ccccc1)n1c(=O)[nH]c2ccccc2c1=O)C(=O)NCC1CCC(C(=O)O)CC1 (some centres not stated) | 12 | – | 3.66 µM [falling, single point]
31 | COCc1[nH][nH]c(=O)c1C=Nc1ccc(Oc2ccccc2)cc1 | 89 | – | –
32 | COc1ccc(CCN2C(=O)CC(Sc3ncccc3C(=O)O)C2=O)cc1OC (configuration not stated) | -29.5 | 0.651 µM [falling, full curve, poor fit] | 25.9 µM [falling, single point]
33 | Cc1c(C(=O)c2ccc(Cl)c([N+](=O)[O-])c2)c2ccccn2c1CCC#N | 32.3 | 6.51 µM [falling, single point] | 25.9 µM [falling, single point]
34 | CCCCOCCCn1c(-c2ccco2)nc2nc3ccccc3nc21 | -28.6 | – | 29.1 µM [falling, single point]
35 | CCC(C)NC(=O)c1cn(CC)c2cc(N3CCN(C(=O)c4ccco4)CC3)c(F)cc2c1=O (configuration not stated) | -86.5 | 20.6 µM [falling, partial curve] | 1.16 µM [falling, partial curve, poor fit]
36 | CC(C)(C)NC(=O)C(=O)NNC(=O)COc1ccc(Br)cc1 | -21.2 | 0.00461 µM [falling, full curve, poor fit] | –
37 | CCCn1c(SCc2ccc(Cl)cc2)nc2c1c(=O)[nH]c(=O)n2C | 0.417 | – | 16.4 µM [rising, single point]

For reference, 10 of the compounds above:
Row | Structure (SMILES) | cell number change [%] | AC50 [1] | AC50 [2]
26 | CCCSc1nc2c(c(=O)[nH]c(=O)n2C)n1CCc1ccccc1 | -23.6 | – | 0.651 µM [falling, full curve, poor fit]
27 | Cc1nc2ccccc2nc1OCC(=O)NCC(F)(F)F | -6.12 | – | 13 µM [falling, partial curve, poor fit]
28 | O=C(NCCc1c[nH]c2ccccc12)c1cc2sccc2n1Cc1ccccc1 | -65.9 | 10.3 µM [falling, partial curve] | 5.8 µM [falling, partial curve]
29 | CCCN(CCC)C(=O)CC(c1ccccc1)c1ccc(C)cc1O (configuration not stated) | -13.1 | – | –
30 | CCC(C)[C@H](NC(=O)[C@H](Cc1ccccc1)n1c(=O)[nH]c2ccccc2c1=O)C(=O)NCC1CCC(C(=O)O)CC1 (some centres not stated) | 12 | – | 3.66 µM [falling, single point]
31 | COCc1[nH][nH]c(=O)c1C=Nc1ccc(Oc2ccccc2)cc1 | 89 | – | –
32 | COc1ccc(CCN2C(=O)CC(Sc3ncccc3C(=O)O)C2=O)cc1OC (configuration not stated) | -29.5 | 0.651 µM [falling, full curve, poor fit] | 25.9 µM [falling, single point]
33 | Cc1c(C(=O)c2ccc(Cl)c([N+](=O)[O-])c2)c2ccccn2c1CCC#N | 32.3 | 6.51 µM [falling, single point] | 25.9 µM [falling, single point]
34 | CCCCOCCCn1c(-c2ccco2)nc2nc3ccccc3nc21 | -28.6 | – | 29.1 µM [falling, single point]
35 | CCC(C)NC(=O)c1cn(CC)c2cc(N3CCN(C(=O)c4ccco4)CC3)c(F)cc2c1=O (configuration not stated) | -86.5 | 20.6 µM [falling, partial curve] | 1.16 µM [falling, partial curve, poor fit]
